The values that follow come from publication PMC2970546.

The chains behind the UniProt entries cited, without tags or fusion partners. Where a name states a change or a piece, a line headed by the entry shows the natural chain unless it says otherwise.
UniProt O43236: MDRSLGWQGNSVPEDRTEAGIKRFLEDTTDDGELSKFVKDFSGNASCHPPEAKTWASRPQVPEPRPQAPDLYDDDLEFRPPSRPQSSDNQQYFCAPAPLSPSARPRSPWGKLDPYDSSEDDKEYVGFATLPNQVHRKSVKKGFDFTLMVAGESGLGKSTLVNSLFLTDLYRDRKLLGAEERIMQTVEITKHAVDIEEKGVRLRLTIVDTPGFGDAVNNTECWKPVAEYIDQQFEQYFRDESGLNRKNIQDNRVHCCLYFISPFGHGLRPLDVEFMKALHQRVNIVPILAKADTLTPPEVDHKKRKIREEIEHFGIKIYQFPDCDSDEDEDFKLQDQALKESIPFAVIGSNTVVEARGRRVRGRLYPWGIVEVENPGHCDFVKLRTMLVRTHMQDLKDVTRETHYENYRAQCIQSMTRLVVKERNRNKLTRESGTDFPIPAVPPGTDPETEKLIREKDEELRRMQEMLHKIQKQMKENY

The labels stand for the following.
B1: human septin 6 (protein, UniProt Q14141-1 1-434)
chain: MAATDIARQVGEGCRTVPLAGHVGFDSLPDQLVNKSVSQGFCFNILCVGETGLGKSTLMDTLFNTKFEGEPATHTQPGVQLQSNTYDLQESNVRLKLTIVSTVGFGDQINKEDSYKPIVEFIDAQFEAYLQEELKIRRVLHTYHDSRIHVCLYFIAPTGHSLKSLDLVTMKKLDSKVNIIPIIAKADAISKSELTKFKIKITSELVSNGVQIYQFPTDDESVAEINGTMNAHLPFAVIGSTEELKIGNKMMRARQYPWGTVQVENEAHCDFVKLREMLIRVNMEDLREQTHTRHYELYRRCKLEEMGFKDTDPDSKPFSLQETYEAKRNEFLGELQKKEEEMRQMFVQRVKEKEAELKEAEKELHEKFDRLKKLHQDEKKKLEDKKKSLDDEVNAFKQRKTAAELLQSQGSQAGGSQTLKRDKEKKNNPWLCTE
B2: human septin 10 (protein, UniProt Q9P0V9 1-454)
chain: MASSEVARHLLFQSHMATKTTCMSSQGSDDEQIKRENIRSLTMSGHVGFESLPDQLVNRSIQQGFCFNILCVGETGIGKSTLIDTLFNTNFEDYESSHFCPNVKLKAQTYELQESNVQLKLTIVNTVGFGDQINKEESYQPIVDYIDAQFEAYLQEELKIKRSLFTYHDSRIHVCLYFISPTGHSLKTLDLLTMKNLDSKVNIIPVIAKADTVSKTELQKFKIKLMSELVSNGVQIYQFPTDDDTIAKVNAAMNGQLPFAVVGSMDEVKVGNKMVKARQYPWGVVQVENENHCDFVKLREMLICTNMEDLREQTHTRHYELYRRCKLEEMGFTDVGPENKPVSVQETYEAKRHEFHGERQRKEEEMKQMFVQRVKEKEAILKEAERELQAKFEHLKRLHQEERMKLEEKRRLLEEEIIAFSKKKATSEIFHSQSFLATGSNLRKDKDRKNSNFL
B3: human septin 8 (protein, UniProt Q92599-1 1-483)
chain: MAATDLERFSNAEPEPRSLSLGGHVGFDSLPDQLVSKSVTQGFSFNILCVGETGIGKSTLMNTLFNTTFETEEASHHEACVRLRPQTYDLQESNVQLKLTIVDAVGFGDQINKDESYRPIVDYIDAQFENYLQEELKIRRSLFDYHDTRIHVCLYFITPTGHSLKSLDLVTMKKLDSKVNIIPIIAKADTISKSELHKFKIKIMGELVSNGVQIYQFPTDDEAVAEINAVMNAHLPFAVVGSTEEVKVGNKLVRARQYPWGVVQVENENHCDFVKLREMLIRVNMEDLREQTHSRHYELYRRCKLEEMGFQDSDGDSQPFSLQETYEAKRKEFLSELQRKEEEMRQMFVNKVKETELELKEKERELHEKFEHLKRVHQEEKRKVEEKRRELEEETNAFNRRKAAVEALQSQALHATSQQPLRKDKDKKNRSDIGAHQPGMSLSSSKVMMTKASVEPLNCSSWWPAIQCCSCLVRDATWREGFL
B4: human septin 7 (protein, UniProt Q16181-1 1-437)
chain: MSVSARSAAAEERSVNSSTMVAQQKNLEGYVGFANLPNQVYRKSVKRGFEFTLMVVGESGLGKSTLINSLFLTDLYSPEYPGPSHRIKKTVQVEQSKVLIKEGGVQLLLTIVDTPGFGDAVDNSNCWQPVIDYIDSKFEDYLNAESRVNRRQMPDNRVQCCLYFIAPSGHGLKPLDIEFMKRLHEKVNIIPLIAKADTLTPEECQQFKKQIMKEIQEHKIKIYEFPETDDEEENKLVKKIKDRLPLAVVGSNTIIEVNGKRVRGRQYPWGVAEVENGEHCDFTILRNMLIRTHMQDLKDVTNNVHYENYRSRKLAAVTYNGVDNNKNKGQLTKSPLAQMEEERREHVAKMKKMEMEMEQVFEMKVKEKVQKLKDSEAELQRRHEQMKKNLEAQHKELEEKRRQFEDEKANWEAQQRILEQQNSSRTLEKNKKKGKIF

No constants are given. Whether binding was seen depends on the method and setting. A result given as binding can be weak or reduced; the word gives no strength.

The test concerns the target human septin 4 lacking the N-terminal domain (aa 124-478) (human) (UniProt O43236). Put plainly: two-hybrid; LexA-septin bait (modified pBTM116) in yeast L40 screened against human fetal brain and human leukocyte cDNA libraries (pACT2); minimal medium without Trp, Leu, His, with 5 mM 3-AT; every clone confirmed one-to-one with its bait by beta-galactosidase filter assay, empty bait vector as control.
Turning to B1, the binding result is listed as “binds”.
In the case of B2, the binding result is on record as “binds”.
The result for B3 reads “binds”.
In the case of B4, the binding entry is “no binding”.
